The list shows a part of the results.

Amino acid sequences for entries named in this document (tags omitted). A change or cut given only in a name is not applied to a line headed by its entry.
UniProt Q03167: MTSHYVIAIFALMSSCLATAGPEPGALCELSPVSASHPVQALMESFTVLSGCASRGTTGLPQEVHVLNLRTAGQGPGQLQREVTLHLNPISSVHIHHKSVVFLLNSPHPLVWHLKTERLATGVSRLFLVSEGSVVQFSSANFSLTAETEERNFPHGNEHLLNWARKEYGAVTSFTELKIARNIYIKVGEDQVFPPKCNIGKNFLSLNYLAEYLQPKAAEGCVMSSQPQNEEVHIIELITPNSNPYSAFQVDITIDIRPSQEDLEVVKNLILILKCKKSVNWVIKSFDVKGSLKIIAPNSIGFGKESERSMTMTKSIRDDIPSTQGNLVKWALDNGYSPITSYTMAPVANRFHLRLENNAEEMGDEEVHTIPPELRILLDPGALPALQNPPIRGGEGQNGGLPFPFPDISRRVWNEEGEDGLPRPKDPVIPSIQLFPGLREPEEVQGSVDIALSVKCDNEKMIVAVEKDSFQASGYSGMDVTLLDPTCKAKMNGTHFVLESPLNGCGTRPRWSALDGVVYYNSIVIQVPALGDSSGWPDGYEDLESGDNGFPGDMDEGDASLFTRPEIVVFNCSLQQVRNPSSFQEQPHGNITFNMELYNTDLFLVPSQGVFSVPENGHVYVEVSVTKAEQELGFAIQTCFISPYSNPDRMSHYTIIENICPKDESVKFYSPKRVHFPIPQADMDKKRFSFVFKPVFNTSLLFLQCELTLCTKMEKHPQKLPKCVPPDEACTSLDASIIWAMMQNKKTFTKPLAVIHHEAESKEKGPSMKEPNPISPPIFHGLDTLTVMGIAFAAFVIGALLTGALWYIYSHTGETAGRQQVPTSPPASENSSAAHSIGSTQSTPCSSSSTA
UniProt Q5T1C6: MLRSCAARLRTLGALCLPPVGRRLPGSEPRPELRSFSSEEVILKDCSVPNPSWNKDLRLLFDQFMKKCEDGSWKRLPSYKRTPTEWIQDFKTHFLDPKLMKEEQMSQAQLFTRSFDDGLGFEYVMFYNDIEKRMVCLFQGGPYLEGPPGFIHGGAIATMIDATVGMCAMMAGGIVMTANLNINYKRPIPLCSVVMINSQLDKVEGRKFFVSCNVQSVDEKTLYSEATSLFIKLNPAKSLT
UniProt Q9H061: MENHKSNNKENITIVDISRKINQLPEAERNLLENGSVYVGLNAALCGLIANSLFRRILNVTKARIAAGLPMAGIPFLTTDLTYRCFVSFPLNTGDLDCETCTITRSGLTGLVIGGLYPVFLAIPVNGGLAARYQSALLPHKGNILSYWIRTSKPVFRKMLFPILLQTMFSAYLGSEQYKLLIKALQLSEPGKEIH
UniProt Q8IUX1: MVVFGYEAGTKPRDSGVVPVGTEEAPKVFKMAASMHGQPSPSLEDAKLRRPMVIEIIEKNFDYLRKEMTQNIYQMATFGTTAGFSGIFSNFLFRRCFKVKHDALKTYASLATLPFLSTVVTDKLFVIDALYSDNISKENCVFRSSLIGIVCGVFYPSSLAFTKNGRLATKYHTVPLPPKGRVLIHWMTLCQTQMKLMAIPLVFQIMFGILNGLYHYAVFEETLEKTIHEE
UniProt Q7Z403: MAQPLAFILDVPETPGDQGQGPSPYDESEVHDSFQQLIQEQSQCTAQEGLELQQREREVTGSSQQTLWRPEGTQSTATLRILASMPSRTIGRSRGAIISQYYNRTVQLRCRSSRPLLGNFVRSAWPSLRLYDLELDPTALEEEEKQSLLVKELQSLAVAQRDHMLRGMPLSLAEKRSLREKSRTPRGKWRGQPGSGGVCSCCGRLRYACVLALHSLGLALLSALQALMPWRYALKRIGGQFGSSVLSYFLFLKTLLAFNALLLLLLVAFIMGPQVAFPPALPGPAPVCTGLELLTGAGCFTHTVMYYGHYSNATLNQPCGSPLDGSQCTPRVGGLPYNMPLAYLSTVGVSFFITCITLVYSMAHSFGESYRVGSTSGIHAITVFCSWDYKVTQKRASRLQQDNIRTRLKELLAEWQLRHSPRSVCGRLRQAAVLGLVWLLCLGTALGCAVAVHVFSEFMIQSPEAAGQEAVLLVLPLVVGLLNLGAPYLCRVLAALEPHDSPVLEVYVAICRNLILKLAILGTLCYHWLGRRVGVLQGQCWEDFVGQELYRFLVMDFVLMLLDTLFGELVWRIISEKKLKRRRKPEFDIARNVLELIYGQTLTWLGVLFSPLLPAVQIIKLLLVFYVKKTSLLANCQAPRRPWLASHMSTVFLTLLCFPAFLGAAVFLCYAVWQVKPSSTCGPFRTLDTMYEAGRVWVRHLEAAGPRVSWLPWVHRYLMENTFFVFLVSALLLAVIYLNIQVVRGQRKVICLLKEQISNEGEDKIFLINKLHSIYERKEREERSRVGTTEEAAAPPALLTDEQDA
UniProt Q5U3C3: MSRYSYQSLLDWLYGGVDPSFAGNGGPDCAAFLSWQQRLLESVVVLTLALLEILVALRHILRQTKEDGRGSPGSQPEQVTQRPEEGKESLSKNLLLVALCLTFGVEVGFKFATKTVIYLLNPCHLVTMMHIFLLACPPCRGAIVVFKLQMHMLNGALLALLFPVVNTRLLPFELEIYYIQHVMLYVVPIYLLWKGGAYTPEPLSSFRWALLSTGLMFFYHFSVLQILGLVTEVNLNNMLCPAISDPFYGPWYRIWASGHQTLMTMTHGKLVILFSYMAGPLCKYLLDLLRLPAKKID
UniProt Q9Y5J6: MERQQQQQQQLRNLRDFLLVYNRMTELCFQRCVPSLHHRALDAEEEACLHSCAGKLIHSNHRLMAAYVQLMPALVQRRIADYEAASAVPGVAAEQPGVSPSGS
UniProt Q01085: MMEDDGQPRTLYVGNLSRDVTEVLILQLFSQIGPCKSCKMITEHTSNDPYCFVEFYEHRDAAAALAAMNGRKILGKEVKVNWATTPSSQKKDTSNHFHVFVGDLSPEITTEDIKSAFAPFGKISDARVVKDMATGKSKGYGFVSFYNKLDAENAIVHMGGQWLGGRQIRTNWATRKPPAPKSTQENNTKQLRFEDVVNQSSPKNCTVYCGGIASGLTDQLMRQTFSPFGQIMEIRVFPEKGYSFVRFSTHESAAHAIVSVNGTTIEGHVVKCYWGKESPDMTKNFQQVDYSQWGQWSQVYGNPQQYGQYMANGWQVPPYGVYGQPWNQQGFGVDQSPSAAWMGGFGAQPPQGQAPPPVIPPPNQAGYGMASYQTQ
UniProt Q5JTD0: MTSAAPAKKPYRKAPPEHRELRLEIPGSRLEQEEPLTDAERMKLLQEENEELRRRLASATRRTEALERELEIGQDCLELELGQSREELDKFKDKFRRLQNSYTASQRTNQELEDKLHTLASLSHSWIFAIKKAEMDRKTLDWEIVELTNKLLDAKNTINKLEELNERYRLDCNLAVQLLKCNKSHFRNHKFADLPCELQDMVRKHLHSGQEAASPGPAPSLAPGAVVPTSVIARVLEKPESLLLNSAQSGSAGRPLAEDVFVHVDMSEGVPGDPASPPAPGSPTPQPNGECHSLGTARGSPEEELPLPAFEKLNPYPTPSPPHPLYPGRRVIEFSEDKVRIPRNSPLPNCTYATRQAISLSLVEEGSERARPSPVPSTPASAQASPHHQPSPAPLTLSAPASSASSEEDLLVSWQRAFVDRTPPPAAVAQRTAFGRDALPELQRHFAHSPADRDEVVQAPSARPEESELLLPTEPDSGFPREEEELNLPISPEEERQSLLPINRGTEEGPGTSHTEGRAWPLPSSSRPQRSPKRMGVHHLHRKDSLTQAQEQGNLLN
UniProt Q9UDY2: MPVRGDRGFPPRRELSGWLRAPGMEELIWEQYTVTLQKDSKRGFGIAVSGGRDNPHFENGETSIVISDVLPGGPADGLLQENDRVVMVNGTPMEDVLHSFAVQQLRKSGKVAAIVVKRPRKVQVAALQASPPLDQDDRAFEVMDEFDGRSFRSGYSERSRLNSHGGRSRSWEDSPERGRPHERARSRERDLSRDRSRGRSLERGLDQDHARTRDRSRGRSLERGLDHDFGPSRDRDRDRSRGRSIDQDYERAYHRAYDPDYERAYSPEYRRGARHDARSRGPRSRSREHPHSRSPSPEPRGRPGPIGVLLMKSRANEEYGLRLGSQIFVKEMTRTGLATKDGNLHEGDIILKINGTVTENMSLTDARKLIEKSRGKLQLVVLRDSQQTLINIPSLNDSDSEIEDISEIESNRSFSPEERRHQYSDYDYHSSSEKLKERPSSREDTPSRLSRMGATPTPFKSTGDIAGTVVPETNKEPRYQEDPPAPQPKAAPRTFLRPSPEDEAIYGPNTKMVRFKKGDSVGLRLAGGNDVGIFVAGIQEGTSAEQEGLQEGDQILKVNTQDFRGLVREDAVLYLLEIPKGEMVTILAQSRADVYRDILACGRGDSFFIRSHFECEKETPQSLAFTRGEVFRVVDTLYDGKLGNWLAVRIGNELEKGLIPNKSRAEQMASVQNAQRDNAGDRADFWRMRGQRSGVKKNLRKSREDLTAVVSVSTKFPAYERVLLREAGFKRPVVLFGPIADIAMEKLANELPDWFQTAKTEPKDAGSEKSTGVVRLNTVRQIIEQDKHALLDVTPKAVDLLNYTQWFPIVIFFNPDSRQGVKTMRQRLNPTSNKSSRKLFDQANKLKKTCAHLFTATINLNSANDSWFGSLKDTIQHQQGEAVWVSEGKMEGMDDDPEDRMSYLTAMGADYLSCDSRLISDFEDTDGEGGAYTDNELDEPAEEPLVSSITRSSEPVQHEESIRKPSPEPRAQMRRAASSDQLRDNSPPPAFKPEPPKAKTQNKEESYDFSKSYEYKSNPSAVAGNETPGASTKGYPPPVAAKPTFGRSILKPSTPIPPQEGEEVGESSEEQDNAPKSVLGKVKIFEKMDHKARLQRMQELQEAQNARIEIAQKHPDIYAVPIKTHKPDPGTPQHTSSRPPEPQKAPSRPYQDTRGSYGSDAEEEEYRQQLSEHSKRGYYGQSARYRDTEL
UniProt Q9NX00: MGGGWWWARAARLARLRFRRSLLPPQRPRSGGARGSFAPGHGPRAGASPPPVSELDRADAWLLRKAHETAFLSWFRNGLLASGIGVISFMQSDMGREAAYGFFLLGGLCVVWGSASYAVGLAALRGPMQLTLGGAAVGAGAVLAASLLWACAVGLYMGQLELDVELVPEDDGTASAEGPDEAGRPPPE
UniProt P52888, whole entry, looked up: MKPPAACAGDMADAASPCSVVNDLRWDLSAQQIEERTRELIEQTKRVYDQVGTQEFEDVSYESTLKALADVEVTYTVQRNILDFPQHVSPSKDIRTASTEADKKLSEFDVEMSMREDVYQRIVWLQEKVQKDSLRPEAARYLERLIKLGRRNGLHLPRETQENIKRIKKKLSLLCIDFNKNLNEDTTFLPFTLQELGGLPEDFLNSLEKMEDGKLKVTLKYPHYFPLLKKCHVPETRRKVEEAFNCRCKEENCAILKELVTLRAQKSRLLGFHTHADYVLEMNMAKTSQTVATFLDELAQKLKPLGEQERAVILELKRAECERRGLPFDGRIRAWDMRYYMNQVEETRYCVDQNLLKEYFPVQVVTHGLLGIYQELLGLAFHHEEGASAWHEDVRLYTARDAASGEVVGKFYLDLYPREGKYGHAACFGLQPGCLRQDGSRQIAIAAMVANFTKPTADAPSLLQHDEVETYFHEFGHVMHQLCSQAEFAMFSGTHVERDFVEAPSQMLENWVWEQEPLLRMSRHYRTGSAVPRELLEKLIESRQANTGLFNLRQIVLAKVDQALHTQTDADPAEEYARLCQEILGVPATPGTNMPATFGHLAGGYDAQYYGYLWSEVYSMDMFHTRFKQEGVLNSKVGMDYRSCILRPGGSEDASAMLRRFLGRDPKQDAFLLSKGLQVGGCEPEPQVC
UniProt Q9NX61: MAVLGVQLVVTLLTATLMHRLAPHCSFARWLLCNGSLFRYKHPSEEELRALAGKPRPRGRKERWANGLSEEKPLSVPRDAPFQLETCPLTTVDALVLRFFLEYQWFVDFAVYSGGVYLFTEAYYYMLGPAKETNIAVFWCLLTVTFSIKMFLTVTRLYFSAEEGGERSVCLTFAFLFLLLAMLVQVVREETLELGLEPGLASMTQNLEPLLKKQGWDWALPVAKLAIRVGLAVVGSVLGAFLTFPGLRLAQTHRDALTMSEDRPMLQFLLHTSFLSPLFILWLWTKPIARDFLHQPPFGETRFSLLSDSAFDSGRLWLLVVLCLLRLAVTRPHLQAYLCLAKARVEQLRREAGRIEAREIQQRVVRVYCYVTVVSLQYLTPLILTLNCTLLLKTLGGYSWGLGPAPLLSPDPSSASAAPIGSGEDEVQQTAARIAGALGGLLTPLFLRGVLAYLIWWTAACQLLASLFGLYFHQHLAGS
UniProt Q1AE95: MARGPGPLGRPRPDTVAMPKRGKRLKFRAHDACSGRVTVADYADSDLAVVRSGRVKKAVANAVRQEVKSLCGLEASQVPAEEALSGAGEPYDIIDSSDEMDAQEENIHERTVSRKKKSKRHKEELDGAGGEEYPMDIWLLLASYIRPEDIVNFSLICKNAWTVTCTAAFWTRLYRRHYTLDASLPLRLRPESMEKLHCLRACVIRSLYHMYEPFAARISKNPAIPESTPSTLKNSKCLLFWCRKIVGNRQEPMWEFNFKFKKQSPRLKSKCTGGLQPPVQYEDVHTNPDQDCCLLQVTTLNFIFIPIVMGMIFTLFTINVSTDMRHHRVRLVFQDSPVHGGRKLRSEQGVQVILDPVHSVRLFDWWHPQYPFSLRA

Compound in one assay: NCC(=O)Nc1ccc(-n2nc(C(F)(F)F)cc2-c2ccc3c(ccc4ccccc43)c2)cc1
The experiment in a line: log2 fold change, soluble protein after heating vs DMSO (PISA); higher = thermal stabilisation; K562 lysate, 10 uM; active = over 0.2 and 3.5 SD of the protein, either way, in both replicates (recomputed). The essentials: (§1)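 K562 pellets were dounce-homogenised in PBS pH 7.4 with 1 mM MgCl2, and the crude extract at 1 mg/mL protein was treated with 10 μM compound for 30 min. Aliquots were heated for 3 min across 48°C-58°C, pooled, and brought to 0.5% NP-40 at 4°C; soluble protein was the supernatant after 21,000xg for 90 min. Soluble protein was quantified by TMTpro 16plex LC-MS/MS with channel sums equalised, and reported as log2 fold change in thermal stability against DMSO controls, with values from duplicates.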
On to THUMPD3 (UniProt Q9BV44), for which the log2 fold change was inactive: 0.018. Regarding TMEM167A (UniProt Q8TBQ9), the log2 fold change is inactive: -0.119. Still for that read-out and setting: next, TLE5 isoform 2 (UniProt Q08117): inactive: -0.031; TMEM167B (UniProt Q9NRX6): inactive: 0.019; TGFBR3 (UniProt Q03167): inactive: -0.02. Same read-out and setting: next, TMED9 (UniProt Q9BVK6): inactive: -0.029; THEM4 (UniProt Q5T1C6): inactive: -0.014; TKFC (UniProt Q3LXA3): inactive: 0.004.

As to TMEM109 (UniProt Q9BVC6), the log2 fold change was inactive: -0.022.

For the target TLR9 isoform 4 (UniProt Q9NR96), the log2 fold change was inactive: -0.002.

In the case of TIMM8A (UniProt O60220), the log2 fold change was inactive: 0.05. The same measure, in the same setting: to TM7SF3 (UniProt Q9NS93) belongs inactive: -0.022; to TGS1 (UniProt Q96RS0), inactive: -0.035; to TMEM126A (UniProt Q9H061), inactive: -0.006. Still for that read-out and setting: next, TIMM44 (UniProt O43615): inactive: 0.045; TMEM126B (UniProt Q8IUX1): inactive: 0.112; TMC6 (UniProt Q7Z403): inactive: 0.041. For TMEM164 (UniProt Q5U3C3), the log2 fold change was inactive: 0.098. Same read-out and setting: next, TIMM10B (UniProt Q9Y5J6): inactive: -0.138; TIAL1 isoform 2 (UniProt Q01085): inactive: -0.001.

On to TJAP1 (UniProt Q5JTD0), for which the log2 fold change was inactive: 0.077.

With THOC1 (UniProt Q96FV9), the log2 fold change was inactive: 0.009. Still for that read-out and setting: next, TJP2 isoform 7 (UniProt Q9UDY2): inactive: -0.026; TIPIN (UniProt Q9BVW5): inactive: 0.001; TMEM160 (UniProt Q9NX00): inactive: 0.045.

THOP1 (UniProt P52888): the log2 fold change was inactive: 0.002. As to TMEM161A (UniProt Q9NX61), the log2 fold change is inactive: -0.017. For TKT isoform 2 (UniProt P29401), the log2 fold change is inactive: 0.004. Take TIA1 (UniProt P31483): the log2 fold change is inactive: -0.061. Take TMBIM1 (UniProt Q969X1): the log2 fold change was inactive: -0.083. In the case of THOC7 (UniProt Q6I9Y2), the log2 fold change is inactive: -0.035. TMC1 (UniProt Q8TDI8): the log2 fold change is inactive: 0.015. In the case of TMEM141 (UniProt Q96I45), the log2 fold change is inactive: -0.12. On the same count and under the same terms, to TJP1 (UniProt G3V1L9) belongs inactive: -0.044. The same measure, in the same setting: next, TK2 isoform 6 (UniProt O00142): inactive: 0.037. With TMEM183B (UniProt Q1AE95), the log2 fold change is inactive: -0.138.

On to THRAP3 (UniProt Q9Y2W1), for which the log2 fold change is inactive: 0.037.

Compound in a further assay: O=C(CCCCCCC(=O)Nc1ccccc1)NO [vorinostat]
Described as above. The essentials:
as §1
Take THUMPD3 (UniProt Q9BV44): the log2 fold change was inactive: -0.069. Same read-out and setting: next, TMEM167A (UniProt Q8TBQ9): inactive: -0.077; TLE5 isoform 2 (UniProt Q08117): inactive: 0.117; TMEM167B (UniProt Q9NRX6): inactive: 0.

Regarding TGFBR3 (UniProt Q03167), the log2 fold change is inactive: 0.061. The same measure, in the same setting: next, TMED9 (UniProt Q9BVK6): inactive: 0.09. Same read-out and setting: next, THEM4 (UniProt Q5T1C6): inactive: 0.054. On the same count and under the same terms, to TKFC (UniProt Q3LXA3) belongs inactive: 0.06; to TMEM109 (UniProt Q9BVC6), inactive: 0.118; to TLR9 isoform 4 (UniProt Q9NR96), inactive: -0.023. With TIMM8A (UniProt O60220), the log2 fold change is inactive: 0.139. In the case of TM7SF3 (UniProt Q9NS93), the log2 fold change is inactive: 0. Still for that read-out and setting: next, TGS1 (UniProt Q96RS0): inactive: -0.119; TMEM126A (UniProt Q9H061): inactive: 0.041. The same measure, in the same setting: next, TIMM44 (UniProt O43615): active: 0.245; TMEM126B (UniProt Q8IUX1): inactive: 0.04.

Consider TMC6 (UniProt Q7Z403), for which the log2 fold change was inactive: 0.058. For the target TMEM164 (UniProt Q5U3C3), the log2 fold change was inactive: 0.463. Still for that read-out and setting: next, TIMM10B (UniProt Q9Y5J6): inactive: 0.033; TIAL1 isoform 2 (UniProt Q01085): inactive: 0.041.

With TJAP1 (UniProt Q5JTD0), the log2 fold change is inactive: 0.083.

THOC1 (UniProt Q96FV9): the log2 fold change is inactive: -0.2.

For TJP2 isoform 7 (UniProt Q9UDY2), the log2 fold change is inactive: -0.154. TIPIN (UniProt Q9BVW5): the log2 fold change was inactive: 0.042. On to TMEM160 (UniProt Q9NX00), for which the log2 fold change was inactive: 0.125. Consider THOP1 (UniProt P52888), for which the log2 fold change was inactive: 0.093. In the case of TMEM161A (UniProt Q9NX61), the log2 fold change was inactive: -0.185. For TKT isoform 2 (UniProt P29401), the log2 fold change was inactive: 0.133. On the same count and under the same terms, next, TIA1 (UniProt P31483): inactive: 0.081; TMBIM1 (UniProt Q969X1): inactive: 0.083; THOC7 (UniProt Q6I9Y2): inactive: 0.039. As to TMC1 (UniProt Q8TDI8), the log2 fold change is inactive: -0.121. With TMEM141 (UniProt Q96I45), the log2 fold change is inactive: 0.172. Same read-out and setting: to TJP1 (UniProt G3V1L9) belongs active: -0.484; to TK2 isoform 6 (UniProt O00142), inactive: 0.143; to THRAP3 (UniProt Q9Y2W1), inactive: 0.059.
